# PubChem BioAssay AID493014 (National Center for Advancing Translational Sciences (NCATS), 2011)
# Out of some 340,000 compounds screened, about 170 (0.05%) were called active. The inconclusive results got no clear call from the source; some entries with a clear call stand among them for comparison. Calls come from the whole dose curve; as a rule, active = well fitted inhibition curve with a large enough effect in the signal ratio, with a control signal flat (not every such curve was filed as active); inconclusive = small, poorly fitted or top-dose-only effect, or effect the other way, or a change in a side signal; inactive = flat fitted curve, though single readings scatter; the % refers to the signal ratio. Potencies beside an inconclusive call are fits to weak or partial responses and may not hold up.
# Assay: qHTS Assay to Find Inhibitors of Chronic Active B-Cell Receptor Signaling;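 for activity change, negative = inhibition: plate controls were basal doxycycline-induced cells for no effect and cells given 10 µM MG132 for full effect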
# Settings: ABC-DLBCL IkBa-CBG/CBR reporter, luminescence ratio (green luciferase fused to IkBa over red control in TMD8 lymphoma cells), 4 h; activity change, negative = inhibition: at 46.1 µM (top of the series)
# How it was run: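 TMD8 human ABC-DLBCL cells with doxycycline-inducible IκBα–green luciferase fusion and unfused red luciferase, in 0.5% FBS medium; compounds up to 46 uM, 4 h at 37C. Green/red luminescence ratio, filter-overlap corrected, fitted to concentration-response curves.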
# Potency is the fitted concentration of half-maximal effect.
Compound,Potency,"activity change, negative = inhibition"
CCC(C)(C)n1nnnc1C(c1cc2ccc(OC)cc2[nH]c1=O)N1CCc2ccccc2C1 (configuration not stated),"inconclusive: 29.1 µM [falling, single point]",
COc1ccc(NC(=S)NCC(c2ccco2)N2CCCC2)cc1 (configuration not stated),,inconclusive: 15.6%
COc1ccccc1NC(=S)NN1CCN(C)CC1,,inconclusive: -18%
CCc1cccc(NC(=O)C2CCCN2S(=O)(=O)c2ccc3c(c2)CC(C)N3C(C)=O)c1 (configuration not stated),,inconclusive: 13%
O=C(NCCc1ccc(F)cc1)c1ccc2nccnc2c1,"inconclusive: 25.9 µM [falling, partial curve, poor fit]",
CCCCC(=O)Nc1c(-c2cccc(OC)c2)c(=O)c2ccccc2n1C,,inconclusive: 4.06%
N#CC1=C(N)Oc2n[nH]c(-c3cccs3)c2C1C1CCCCC1 (configuration not stated),"inconclusive: 32.6 µM [rising, single point]",
Cc1cc(=O)oc2cc3c(cc12)OCCN3,,inactive
Nc1nnc(CCS(=O)(=O)c2ccc(Br)cc2)s1,,inactive
O=C(COC(=O)c1cnccn1)Nc1cccc(F)c1,,inactive
Nn1c(-c2cccc(Br)c2)n[nH]c1=S,,inactive
Cc1ccc(-c2nnc(N3CCCCC3)c3ccccc23)cc1,,inactive
Cc1ccc(C)c(NC(=S)NNC(=O)c2csc(C(C)C)c2)c1,"inconclusive: 13 µM [falling, partial curve, poor fit]",
COc1ccc(CCNC(=O)CSc2ccc3ccccc3c2)cc1OC,"inconclusive: 20.6 µM [falling, partial curve]",
CC(=O)C(CC(=O)N1CCCc2ccccc21)C(=O)Nc1ccc(F)cc1 (configuration not stated),,inconclusive: 17.7%
Cc1ccc(S(=O)(=O)c2c(N)n(C)c3nc4ccccc4nc23)cc1,"inconclusive: 7.31 µM [rising, partial curve]",
CCCCCc1cc(=O)oc2c(C(CCN3CCCC(C)C3)c3cc(OC)c(OC)c(OC)c3)c(OC)cc(OC)c12 (configuration not stated),"inconclusive: 20 µM [falling, partial curve, poor fit]",
CCc1ccc(NC(=O)C2CCN(c3ncnc4c3nc3n4CCCCC3)CC2)cc1,,inactive
Cc1nc2scc(-c3ccc(C(C)C)cc3)c2c(=O)n1N,,inconclusive: 17.4%
CCC(CC)C(=O)Nc1nc(-c2ccc3c(c2)CCN3C(=O)C2CC2)c(C)s1,,inconclusive: 21.7%
CN(C)CCNc1ncnc2oc(-c3ccccc3)c(-c3ccccc3)c12,,inactive

# Shown with tabs: entries from further up.
Compound	Potency	activity change, negative = inhibition
COc1ccccc1NC(=S)NN1CCN(C)CC1		inconclusive: -18%
Nn1c(-c2cccc(Br)c2)n[nH]c1=S		inactive

# 3 of these compounds in another layout.
Compound | Potency | activity change, negative = inhibition
Nc1nnc(CCS(=O)(=O)c2ccc(Br)cc2)s1 |  | inactive
O=C(COC(=O)c1cnccn1)Nc1cccc(F)c1 |  | inactive
Nn1c(-c2cccc(Br)c2)n[nH]c1=S |  | inactive

# The results go on:

Compound,Potency,"activity change, negative = inhibition"
Cc1cccc(C)c1-n1nnnc1C1(Nc2ccccc2)CCCCC1,,inconclusive: 26.5%
Brc1ccc2ncnc(Nc3cccc4ccccc34)c2c1,,inactive
CCC1CCc2c(sc(NC(=O)C3CC=CCC3C(=O)O)c2C#N)C1 (configuration not stated),,inconclusive: 6.61%
CCOc1ccccc1CN1CCN(S(=O)(=O)CC)CC1,,inactive
CCN(Cc1nc2cc(Cl)ccc2c(=O)[nH]1)C(=O)C1CC(=O)N(c2cccc3ccccc23)C1 (configuration not stated),,inconclusive: -2.97%
CCC(C)(C)n1nnnc1C(c1ccc(O)c(OC)c1)N1CCN(c2nc3ccccc3s2)CC1 (configuration not stated),,inconclusive: -13%
Cc1n[nH]c(=O)nc1NC1CCCCC1,,inactive
O=C(Nc1cccc2ccccc12)N1CCN(Cc2ccccc2)CC1,,inactive
COc1ccc(CCN(C)C(=O)CCCN2C(=O)c3cccc4cccc(c34)C2=O)cc1OC,,inconclusive: 15.5%
CCOc1cc(CN2CCN(S(=O)(=O)Cc3ccccc3)CC2)ccc1OC,,inactive
NC(=O)CC(NC(=O)Cc1ccc(Br)cc1)c1ccc(N2CCCCCCC2)c([N+](=O)[O-])c1 (configuration not stated),,inactive
NC(=O)c1ccccc1Nc1nc2nc3ccccc3c(=O)n2cc1Br,,inconclusive: -8.23%
NNC(=O)CCN1CCN(C(c2ccccc2)c2ccccc2)CC1,,inconclusive: -3.45%
CCc1ccc2[nH]c(=O)c(CN(CC3CCCO3)C(=S)NCc3ccco3)cc2c1 (configuration not stated),"inconclusive: 3.16 µM [falling, partial curve, poor fit]",
COc1cc(/C=C2\C(=O)N(c3ccccc3)N=C2C)ccc1Oc1ccc([N+](=O)[O-])cc1[N+](=O)[O-],,inactive
c1ccc(COc2ccc(Nc3ncnc4nc[nH]c34)cc2)cc1,,inconclusive: 1.16%
CCCn1c(=O)c2ccccc2n2c(SCC(=O)c3ccccc3)nnc12,"inconclusive: 13 µM [rising, partial curve, poor fit]",
CC(=O)Nc1c(O)c2ccccc2[nH]c1=O,,inconclusive: -3.49%
O=C(Cn1c(=O)sc2ccccc21)NCc1ccco1,,inconclusive: -1.25%
Cc1cnn(-c2nc(-c3cccs3)cc(C(F)(F)F)n2)c1,,inconclusive: -0.183%
COc1ccc(SCC(=O)c2cc(C)c(OC(=S)N(C)C)c(C)c2)cc1,,inconclusive: -11.1%

Compound,Potency,"activity change, negative = inhibition"
Cc1onc(-c2ccccc2)c1C(=O)NCCc1ccc(Cl)cc1,,inconclusive: 10.2%
NC(=O)C(=O)N/N=C/c1c2ccccc2cc2ccccc12,,inconclusive: -14.2%
CCCC(=O)Nc1ccc(C(=O)N/N=C/c2cccnc2)cc1,,inconclusive: 2.9%
O=C(CN1C(=O)S/C(=C\C=C\c2ccccc2)C1=O)Nc1ccccc1C(=O)O,,inactive
O=C1NC(=Nc2ccccc2)SC1Cc1ccccc1 (configuration not stated),,inconclusive: -19.2%
COc1ccc(-c2nc3cnccn3c2NCc2ccccc2)cc1SC1CCCCC1,,inactive
COc1ccc(CNc2nc3nc(C)c(Cl)c(=O)n3[nH]2)cc1OC,,inconclusive: -22.4%
Cc1sc2nc(CN(C(=O)NC3CCCCC3)C3CCCC3)[nH]c(=O)c2c1C,,inconclusive: 13.9%
Cc1nc2ccccc2c(=O)n1/N=C/c1ccc(O)cc1,"inconclusive: 11.2 µM [falling, partial curve, poor fit]",
O=C1CC(c2ccccc2)CC(O)=C1C=Nc1ccc(Cl)cc1 (configuration not stated),,inactive
CCNc1nc(NCC)nc(N(C)/N=C/c2ccco2)n1,"inconclusive: 31.6 µM [falling, single point]",
Brc1ccc(OCc2nnnn2-c2ccccc2)cc1,,inactive
S=C(Nc1ccccc1)N1CCn2c1nc1ccccc12,,inactive
Cc1cn(C)c(CC(=O)N2CCN(c3cccc(C(F)(F)F)c3)CC2)c1C(=O)O,,inconclusive: -14.5%
CCN1CCN(S(=O)(=O)c2ccc(Cl)c(C(=O)N(C)Cc3ccc(Cl)cc3Cl)c2)CC1,,inactive
CCCCn1c(SCc2ccccn2)nc2c1c(=O)n(C)c(=O)n2C,,inconclusive: 14.4%
CCOc1ccc2c(c1)c(N=Nc1cccc(C(=O)O)c1)c(O)n2C,"inconclusive: 0.103 µM [falling, full curve, poor fit]",
O=C(Nc1n[nH]c(=S)s1)c1ccco1,,inactive
CC(O)CNC(=O)C(=O)Nc1c2c(nn1-c1ccc(Cl)cc1)CSC2 (configuration not stated),"inconclusive: 7.94 µM [rising, partial curve, poor fit]",
COc1ccc(-c2noc(C3CCCN(C(=O)c4ccccc4)C3)n2)cc1 (configuration not stated),,inactive
Cc1cc(/C=C(\C#N)C(=O)NC2CCCCCC2)c(C)n1C,"inconclusive: 3.26 µM [falling, partial curve]",

Compound,Potency,"activity change, negative = inhibition"
O=C(Nc1ccccc1)c1cccc(C(F)(F)F)c1,,inconclusive: 6.73%
C=CCN1CCN(c2ccncc2S(=O)(=O)N2CCOCC2)CC1,"inconclusive: 18.4 µM [rising, partial curve, poor fit]",
CCCCN(C(=O)C1CCN(C(=O)c2ccccc2C)CC1)c1c(N)n(CCC)c(=O)[nH]c1=O,,inconclusive: -14.8%
COc1ccc(Nc2c3c(nc4ccccc24)CCC3)c(OC)c1,,inconclusive: -7.19%
COc1ccc(C2CC(c3cccs3)=NN2C(=O)CCl)cc1OC (configuration not stated),,inactive
CCOC(=O)N1CCc2c(sc(NC(=O)Cc3ccccc3)c2C(=O)c2ccc(OC)cc2)C1,"inconclusive: 35.5 µM [falling, single point]",
Cc1cc(CN(C)Cc2c(C(=O)N3CCCCCCC3)nc3ccc(Cl)cn23)n[nH]1,"inconclusive: 3.98 µM [rising, full curve]",
O=C(Cc1c[nH]c2ccccc12)NNC(=O)c1ccccc1,,inconclusive: 1.18%
O=C(O)Cn1c(SCc2ccccc2)nc2ccccc21,"inconclusive: 8.2 µM [rising, partial curve, poor fit]",
COc1ccc(/C=N/O)cc1COc1ccc(NC(C)=O)cc1,,inconclusive: -0.498%
NC(=O)CCCc1nc(-c2ccccc2Cl)no1,"inconclusive: 7.08 µM [rising, partial curve, poor fit]",
COc1ccc(N=Cc2cc3c(cc2O)OC(N)=C(C#N)C3c2ccccc2)cc1 (configuration not stated),"inconclusive: 3.66 µM [falling, single point]",
CC(=O)c1c(Nc2ccccc2)sc(C(=O)c2ccccc2)c1C,,inconclusive: 11.7%
CSc1ccccc1NC(=O)CSCc1ccc(C)cc1,"inconclusive: 7.08 µM [falling, partial curve, poor fit]",
Cc1ccc2[nH]c(C(=O)N/N=C/c3ccccc3O)c(C)c2c1,,inconclusive: -12.5%
Cc1ccc(C(C)C)c(OC(=O)/C=C/c2ccccc2)c1,,inconclusive: 20%
CN(CC(=O)Nc1ccc(Cl)c(C(F)(F)F)c1)C(=O)c1cn2ccccc2n1,,inconclusive: 13.6%
COc1cc(/C=N/Nc2nc3ccccc3[nH]2)cc(Br)c1OCC(=O)N(C)C,,inconclusive: -23%
COc1cccc(CN(C(=O)COc2ccccc2[N+](=O)[O-])C2CCS(=O)(=O)C2)c1 (configuration not stated),"inconclusive: 12.6 µM [falling, partial curve]",

# An excerpt from above in order of heavy-atom count, high to low:
Compound,Potency,"activity change, negative = inhibition"
CCCCN(C(=O)C1CCN(C(=O)c2ccccc2C)CC1)c1c(N)n(CCC)c(=O)[nH]c1=O,,inconclusive: -14.8%
CCC(CC)C(=O)Nc1nc(-c2ccc3c(c2)CCN3C(=O)C2CC2)c(C)s1,,inconclusive: 21.7%
COc1ccccc1NC(=S)NN1CCN(C)CC1,,inconclusive: -18%
